Among the data in PubChem BioAssay AID2685 (National Center for Advancing Translational Sciences (NCATS), 2010) are cell number change and AC50 values, retold here.

Some of the results follow. Shown are side measurements of this screen, not its main read-out; they come without a call. Compounds called inactive in the main read-out are mostly missing here. Potencies come from curve fits of mixed quality, noted in brackets.

The nature of the experiment: qHTS Assay for Lipid Storage Modulators in Drosophila S3 Cells.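 On cell number change: cells counted by Cell Tracker Red CMTPX staining in the red channel.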 As to conditions: BODIPY lipid droplet fluorescence, 18-24 h; for cell number change: measured here: cell count max response, cells fed with added oleic acid. The gist of the method:
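Drosophila S3 cells got compounds at several concentrations plus oleic acid (400 uM solution). Laser-scanning cytometry with 488 nm excitation read lipid droplets at 500-530 nm and cells at 575-640 nm. Percent activity was relative to 20 uM Triacsin C.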
For orientation: Quantitative high-throughput screening tests each substance at several concentrations.

[1] abbreviates: measured here: lipid fluorescence (Fed channel) AC50, cells fed with added oleic acid.
Where [2] appears, read: measured here: cell number channel AC50, cells fed with added oleic acid.

As to `CC(=O)/C(CN1CCCCC1)=N\O`, the cell number change was determined as 0.065%. Same read-out and setting: the same measure for `COc1ccc(-c2cc(C(=O)N/N=C/c3cccnc3)c3cc(C)cc(C)c3n2)cc1`: 75.2%. As a reminder, the AC50 is the midpoint of the concentration-response curve, whichever way the signal moves. Regarding `CC(=O)c1ccc(NC(=O)CSc2ccc(-c3ccc4c(c3)OCO4)nn2)cc1`, the cell number change was 12.6%. The AC50 under setting [1] is 0.13 µM [rising, full curve, poor fit]. In the case of `O=C(CC(C(=O)O)c1ccc(Cl)cc1)c1ccc(Br)cc1` (stereo not drawn), the cell number change is -1.39%. For the same compound, the AC50 under setting [1] is 29.1 µM [falling, partial curve]. Regarding `Brc1ccc(-c2csc3ncnc(-n4nnc5ccccc54)c23)cc1`, the cell number change is 24.4%. For the compound `COc1ccc2nc(NC(=O)c3ccc4ncsc4c3)sc2c1`, the cell number change is -31.2%. For the same compound, under setting [2], the AC50 was 13 µM [falling, single point]. Moreover, the AC50 under setting [1] was 1.84 µM [rising, partial curve, poor fit]. On to `CN(C)c1ccnc(NCc2ccccc2)c1C#N`, for which the cell number change stood at 113%. Under setting [2], the AC50 was 13 µM [rising, partial curve]. Also, the AC50 under setting [1] was 29.1 µM [rising, partial curve]. Turning to `CCCCN(CC)CCNC(=S)Nc1ccc2nc(N3CCN(C)CC3)cc(C)c2c1`, the cell number change turned out to be 9.72%. Also, under setting [1], the AC50 is 0.103 µM [falling, full curve, poor fit]. Turning to `S=c1[nH]nc(-c2ccco2)n1/N=C/C(Cl)=C/c1ccccc1`, the cell number change was -54%. Also, the AC50 under setting [2] is 4.61 µM [falling, partial curve]. The AC50 under setting [1] was 7.31 µM [falling, partial curve]. For `CCc1cccc(C)c1NC(=O)C1CC(=O)N(C2CCCC2)C1` (stereo not drawn), the cell number change is -6.56%. In addition, the AC50 under setting [1] was 29.1 µM [rising, single point]. In the case of `COc1ccc(C(=O)OCC(=O)NC(=O)NC2CCCC2)cc1OC`, the cell number change is -16%. Moreover, the AC50 under setting [1] was 0.82 µM [rising, full curve, poor fit]. Take `O=C(NCCCN1CCOCC1)c1ccccc1NS(=O)(=O)c1ccc(F)cc1`: under setting [1], the AC50 was 5.8 µM [rising, single point].

As for `CCOC(=O)N1CCN(C(=O)c2cccc(S(=O)(=O)Nc3ccc(OC)cc3)c2)CC1`, the cell number change was found to be 49.7%. Moreover, under setting [2], the AC50 is 4.61 µM [falling, partial curve]. Moreover, the AC50 under setting [1] was 20.6 µM [rising, partial curve]. As for `CN(C)S(=O)(=O)c1cccc(C(=O)NCC(C)(C)CNC(=O)c2cccc(S(=O)(=O)N(C)C)c2)c1`, the cell number change was 4.7%. Further, the AC50 under setting [1] was 20.6 µM [falling, single point]. On to `NC(=O)c1cccc(S(=O)(=O)N2CC(c3ccccc3)CC2=O)c1` (stereo not drawn), for which the cell number change is 12%. The AC50 under setting [2] is 0.116 µM [falling, single point]. Moreover, the AC50 under setting [1] is 0.058 µM [falling, full curve, poor fit].

As for `CCS(=O)(=O)Nc1ccc2[nH]c(=O)[nH]c2c1`, the cell number change is -54.2%.

On to `Cn1c(=O)n(C)c2cc([N+](=O)[O-])c(N3CCN(C(=O)c4ccccc4)CC3)cc21`, for which the cell number change came out at 12.3%.

Regarding `COc1ccc(NS(=O)(=O)c2cc(NC(=O)c3cccs3)ccc2N2CCCC2)cc1`, the cell number change is -9.75%. The AC50 under setting [1] is 23.1 µM [rising, partial curve]. Regarding `Cc1nc2ncnn2c(C)c1Cc1ccc(Cl)cc1`, the cell number change worked out at 19.7%.

As for `CCn1c(SCC(=O)N2c3ccccc3Sc3ccccc32)nc2c1c(=O)n(C)c(=O)n2C`, the cell number change was determined as 18.4%. Turning to `Cc1ccc(C(=O)Nc2cccc(-c3ccc(N4CCOCC4)nn3)c2)cc1`, the cell number change was -54.2%. Further, under setting [2], the AC50 was 18.4 µM [falling, single point]. With `CN(CCOCCOc1ccc2ccccc2c1)Cc1ccccc1`, the cell number change amounted to 31%. Moreover, the AC50 under setting [2] is 13 µM [rising, single point]. Consider `O=C(C[n+]1cc(Br)cc2ccccc21)c1ccc(F)cc1`, for which the cell number change is -2.78%. In addition, the half-maximal activity concentration (AC50) under setting [1] was 29.1 µM [rising, single point]. Consider `COC(=O)c1noc(-c2ccc(C)cc2)n1`, for which the cell number change is 11.1%. Besides, the AC50 under setting [1] was 6.51 µM [rising, single point]. With `Cc1ccc(NS(=O)(=O)c2ccc(N/N=C/c3ccccc3OCC(=O)O)c([N+](=O)[O-])c2)c(C)c1`, the cell number change turned out to be 11.3%. The half-maximal activity concentration (AC50) under setting [1] was 32.6 µM [rising, partial curve, poor fit]. As to `COc1ccc(NC(=O)Cn2nc(Cc3cccnc3)c3ccccc3c2=O)cc1OC`, the concentration at half-maximal activity (AC50) under setting [1] was 6.51 µM [rising, single point]. As for `O=C(NCCc1ccc(C(F)(F)F)cc1)C1CCC(=O)N(CCc2cccc(F)c2)C1` (stereo not drawn), the cell number change came out at 21.1%. Take `COc1ccc(/C=C/C(=O)NCc2c(C)nn(C)c2C)cc1COc1ccc(Br)cc1`: the cell number change was -68.6%. In addition, the concentration at half-maximal activity (AC50) under setting [2] was 20.6 µM [falling, partial curve]. Besides, the AC50 under setting [1] is 23.1 µM [falling, partial curve].

As to `CSc1ccccc1C(=O)OCC(=O)N1CCCC1=O`, the cell number change turned out to be 4.35%. Also, under setting [1], the AC50 was 3.26 µM [rising, partial curve].

Turning to `CCCCOc1cccc(C(=O)NC(=S)Nc2cccc(C(F)(F)F)c2)c1`, the cell number change worked out at 25.1%. Also, under setting [2], the AC50 is 0.366 µM [falling, single point]. Also, the AC50 under setting [1] was 13 µM [rising, partial curve]. Consider `CC(C)Cn1c(=S)[nH]c2cc(C(=O)NCc3ccccc3F)ccc2c1=O`, for which the cell number change is 4.24%. Also, the AC50 under setting [2] is 0.13 µM [falling, full curve, poor fit].

As for `O=C(c1ccc(Cl)cc1)n1c(NCc2ccccc2)n[nH]c1=S`, the cell number change was 11%. Also, under setting [2], the AC50 is 4.11 µM [rising, partial curve, poor fit].

`Cc1ccc(CN2C(=O)N/C(=C/c3ccc(-c4ccc(C(=O)O)cc4)o3)C2=O)cc1`: the cell number change was -24.2%. Under setting [2], the AC50 is 0.13 µM [falling, full curve, poor fit]. The AC50 under setting [1] was 0.259 µM [falling, full curve]. As to `O=C(CSc1ccc2c(c1)OCCO2)NCc1ccccc1`, the cell number change came out at 27.5%. Further, the AC50 under setting [1] is 0.259 µM [rising, full curve, poor fit].

Consider `O=C(c1ccc(CS(=O)c2cccc(Cl)c2)o1)N1CCN(c2ccccn2)CC1` (stereo not drawn), for which, under setting [1], the AC50 is 14.6 µM [falling, partial curve].

For the compound `O=C(COc1nsnc1N1CCOCC1)Nc1ccc([N+](=O)[O-])cc1`, the cell number change was 2.86%. In addition, under setting [1], the AC50 is 29.1 µM [rising, partial curve, poor fit].

Take `O=C(NCCO)C1(c2ccccc2)CCCC1`: the AC50 under setting [1] was 0.58 µM [falling, single point].

`O=C(Nc1cccc([N+](=O)[O-])c1)c1ccc2c(c1)OCCO2`: under setting [1], the AC50 is 6.51 µM [rising, partial curve, poor fit].

Turning to `COc1cccc(-c2ccc(-c3noc(-c4ccccc4F)n3)c(OC)n2)c1`, under setting [1], the AC50 was 0.58 µM [rising, single point]. As for `CSc1ccc(CN(C)C(C)C(=O)Nc2ccc(F)c(F)c2F)cc1` (stereo not drawn), the cell number change came to 118%. Regarding `CCCN(CCC)CCCNC(=O)c1cc2c(=O)[nH]c3ccccc3c2s1`, the cell number change came out at 7.8%. The AC50 under setting [1] is 29.1 µM [rising, partial curve, poor fit]. Turning to `COc1ccc(CCNC(=O)c2sc3nc4n(c(=O)c3c2C)CCC4)cc1`, the cell number change amounted to 56.9%. Further, the AC50 under setting [2] is 2.06 µM [rising, full curve]. For the same compound, the AC50 under setting [1] was 5.8 µM [rising, partial curve]. Take `Cc1cc(C(=O)NCC2CCCO2)sc1C` (stereo not drawn): the cell number change worked out at 0.283%. Besides, under setting [1], the AC50 was 0.058 µM [rising, full curve, poor fit]. `CNC(=O)NC(=O)CN1C(=O)NC2(CCOc3ccccc32)C1=O` (stereo not drawn): the cell number change was -41%. Further, the AC50 under setting [2] is 36.6 µM [falling, partial curve, poor fit]. Also, the AC50 under setting [1] was 29.1 µM [rising, single point].

As to `Cc1ccc(-c2nc3c4ccccc4ccn3c2CN2CCCCC2)cc1`, the cell number change is -6.32%. Further, the AC50 under setting [1] was 0.231 µM [falling, partial curve, poor fit]. Turning to `CCCc1nc(SCc2ccccn2)c2c(=O)n(C)c(=O)n(C)c2n1`, the cell number change amounted to 21%. Also, the AC50 under setting [1] was 2.06 µM [rising, partial curve]. Turning to `O=C(COc1ccccc1)N(CCc1ccccc1)c1nc(-c2ccc(F)cc2)cs1`, the cell number change was -27.1%. Moreover, under setting [1], the AC50 is 16.4 µM [falling, partial curve]. For `CC1(C)C(C=C(Cl)Cl)C1C(=O)N1CCN(c2ccccc2)CC1` (stereo not drawn), the half-maximal activity concentration (AC50) under setting [2] was 5.17 µM [falling, single point] and the AC50 under setting [1] was 6.51 µM [falling, single point]. Take `CCOc1ccc(OCCC(=O)OCC(=O)N2CCN(S(=O)(=O)c3ccc(Cl)cc3)CC2)cc1`: the cell number change is -38.2%. Besides, the concentration at half-maximal activity (AC50) under setting [2] was 35.5 µM [falling, single point]. Moreover, the AC50 under setting [1] was 22.4 µM [falling, partial curve].

Regarding `COc1cc(CN(C2CCCCC2)S(=O)(=O)c2ccc(S(=O)(=O)N(C)C3CCCCC3)cc2)cc(OC)c1OC`, the cell number change was determined as 17%. Moreover, the AC50 under setting [1] was 29.1 µM [rising, single point]. On to `CCC1(c2ccc(F)cc2)NC(=O)N(CC(=O)NCc2ccc(C)cc2)C1=O` (stereo not drawn), for which the cell number change was determined as 54.1%. Moreover, under setting [2], the AC50 is 29.1 µM [rising, single point]. Also, the AC50 under setting [1] was 0.13 µM [falling, full curve, poor fit]. With `O=C(C1CCN(Cc2nc(-c3ccc(Cl)cc3)no2)CC1)N1CCOCC1`, the cell number change came to 5.73%. Further, under setting [2], the AC50 is 0.058 µM [falling, partial curve, poor fit]. In the case of `N/C(=N\OC(=O)CCn1cccc(C(F)(F)F)c1=O)c1ccc(Cl)cc1`, the cell number change is 34.8%. Further, the half-maximal activity concentration (AC50) under setting [2] is 29.1 µM [rising, single point].

For the compound `CC(C)=NOc1cc(NC(=O)CCl)cc([N+](=O)[O-])c1`, the cell number change is -16.5%. The AC50 under setting [1] was 0.231 µM [falling, full curve, poor fit]. Take `COc1ccc(CN2CCCC(N3CCN(c4cccc(Cl)c4)CC3)C2)cc1OC` (stereo not drawn): the cell number change was -10.2%. Also, the concentration at half-maximal activity (AC50) under setting [1] was 0.00461 µM [falling, full curve, poor fit].

For the compound `O=S(=O)(CCSc1nc2ccccc2o1)c1nc2ccccc2s1`, the cell number change is -32.6%. Besides, under setting [2], the AC50 is 29.1 µM [falling, single point]. Moreover, under setting [1], the AC50 was 29.1 µM [falling, single point]. Regarding `COC(=O)CN1C(=O)C2(OCCCO2)c2cc(Br)ccc21`, the cell number change is -8.14%.

With `O=C(CCCCn1c(=O)c2ccccc2n(CC(=O)Nc2ccccc2)c1=O)NCc1ccco1`, the cell number change was -25.8%. The concentration at half-maximal activity (AC50) under setting [1] was 29.1 µM [falling, single point].
